# Data taken from patent US9233921B2, “Potent poxvirus inhibitor” (priority 2013, dated 2016).
# “Also recorded” adds a separate entry of the source. For at least one compound, name, drawing or mass did not settle the structure.
# Key:
# [1] = test system: vaccinia virus; type: cell-based, Vaccinia virus (WR strain)
# [2] = test system: recombinant VACV (vL1Ri); type: cell-based, vaccinia virus in BSC-1 cells
# [3] = test system: E3 protein (early gene product); type: cell-based, vaccinia virus in BSC-1 cells
# [4] = test system: A4 protein (late gene product); type: cell-based, vaccinia virus in BSC-1 cells
# [5] = test system: viral DNA replication; assay: BrdU incorporation assay (viral DNA replication); type: cell-based, vaccinia virus in BSC-1 cells; settings: 1 μM 24a, 4 and 8 hpi, MOI 1
structure (smiles),measurement,setting,value
"COC(=O)c1[nH]c2ccc(C)cc2c1Sc1ccc(Cl)cc1 [Compound 7, Methyl 3-((4-chlorophenyl)thio)-5-methyl-1H-indole-2-carboxylate]",IC50 (antiviral),[1],failed to show activity
"Cc1ccc2c(Sc3cc(Cl)cc(Cl)c3)c(CCC(N)=O)[nH]c2c1 [Compound 24a, 3-(3-((3,5-Dichlorophenyl)thio)-6-methyl-1H-indol-2-yl)propanamide]",EGFP expression (late reporter gene),[2],blocking of late reporter gene expression; also recorded: significantly reduced EGFP expression
same,cytopathic effect (CPE),[2],lowered cytophathic effect
same,"EGFP expression, compound added after virus adsorption",[2]; 8 h,still showed appreciable EGFP expression; also recorded: suppression of EGFP was still observed
same,E3 early protein level,[3],Only a slight decrease in protein level
same,A4 late protein level,[4],"blocking of late, but not early, viral marker proteins; also recorded: dramatically reduced in a dose-dependent manner"
same,BrdU incorporation into viral DNA,[5],inhibition of viral DNA replication; also recorded: significantly suppressed
"CCCCCCNC(=O)CCc1[nH]c2cc(C)ccc2c1Sc1cc(Cl)cc(Cl)c1 [Compound 24e, 3-(3-((3,5-Dichlorophenyl)thio)-6-methyl-1H-indol-2-yl)-N-hexylpropanamide]",IC50 (nM),[1],complete loss of activity
